This is one part of the list.
Compound: O=C(O)c1ccc2c(c1)nc(Nc1cccc(Cl)c1)c1ccncc12 [silmitasertib]
Experiment: log2 fold change, soluble protein after heating vs DMSO (PISA); higher = thermal stabilisation; K562 lysate, 10 uM; active = over 0.2 and 3.5 SD of the protein, either way, in both replicates (recomputed)
Outline: (§1)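 Following dounce homogenisation of K562 pellets in PBS pH 7.4 with 1 mM MgCl2, crude extract at 1 mg/mL protein was incubated for 30 min with 10 μM compound. Aliquots were then heated for 3 min over 48°C-58°C and pooled, NP-40 was added to 0.5% at 4°C, and soluble protein was recovered as the supernatant at 21,000xg for 90 min. Channel-sum-equalised TMTpro 16plex LC-MS/MS quantified this protein. Each value, from duplicates, is a log-two fold change in thermal stability relative to solvent controls.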

Protein sequences, listed by entry. Tags and fused reporters are not part of them. Lines headed by an entry give the natural chain unless they say otherwise; changes in a name come on top.
UniProt Q5JTV8: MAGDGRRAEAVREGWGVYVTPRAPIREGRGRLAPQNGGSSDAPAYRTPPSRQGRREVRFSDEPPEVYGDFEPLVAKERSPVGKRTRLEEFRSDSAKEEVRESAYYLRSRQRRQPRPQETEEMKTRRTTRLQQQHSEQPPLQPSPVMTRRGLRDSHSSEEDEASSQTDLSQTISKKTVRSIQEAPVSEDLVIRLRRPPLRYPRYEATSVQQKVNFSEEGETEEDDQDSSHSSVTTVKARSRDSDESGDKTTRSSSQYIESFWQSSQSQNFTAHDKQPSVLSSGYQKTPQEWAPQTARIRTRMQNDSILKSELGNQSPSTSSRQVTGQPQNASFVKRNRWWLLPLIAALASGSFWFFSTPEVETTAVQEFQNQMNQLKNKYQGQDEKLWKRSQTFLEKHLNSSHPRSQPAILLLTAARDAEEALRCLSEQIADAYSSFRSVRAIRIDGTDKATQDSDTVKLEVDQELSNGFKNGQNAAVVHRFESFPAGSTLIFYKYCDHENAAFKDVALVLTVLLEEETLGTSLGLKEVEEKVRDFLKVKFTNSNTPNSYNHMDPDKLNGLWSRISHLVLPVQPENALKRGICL
UniProt Q9Y320, whole entry, looked up: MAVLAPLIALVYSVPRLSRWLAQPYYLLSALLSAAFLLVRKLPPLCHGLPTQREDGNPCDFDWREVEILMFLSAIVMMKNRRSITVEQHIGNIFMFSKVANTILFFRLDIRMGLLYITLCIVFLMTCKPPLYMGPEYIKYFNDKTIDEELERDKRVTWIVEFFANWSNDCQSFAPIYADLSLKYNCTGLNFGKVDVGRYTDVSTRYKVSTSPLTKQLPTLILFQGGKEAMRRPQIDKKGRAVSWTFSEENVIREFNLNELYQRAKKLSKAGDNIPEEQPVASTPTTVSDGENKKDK
UniProt Q9NS69: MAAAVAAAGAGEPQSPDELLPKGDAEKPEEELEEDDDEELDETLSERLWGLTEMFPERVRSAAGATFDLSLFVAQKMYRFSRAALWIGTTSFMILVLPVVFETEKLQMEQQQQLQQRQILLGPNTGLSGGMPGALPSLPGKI
UniProt Q9P0T7: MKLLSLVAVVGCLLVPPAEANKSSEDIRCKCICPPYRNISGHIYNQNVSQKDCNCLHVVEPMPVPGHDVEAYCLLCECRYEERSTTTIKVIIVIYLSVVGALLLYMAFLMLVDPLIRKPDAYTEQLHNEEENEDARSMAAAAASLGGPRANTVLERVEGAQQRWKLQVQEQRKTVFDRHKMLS
UniProt Q969M1: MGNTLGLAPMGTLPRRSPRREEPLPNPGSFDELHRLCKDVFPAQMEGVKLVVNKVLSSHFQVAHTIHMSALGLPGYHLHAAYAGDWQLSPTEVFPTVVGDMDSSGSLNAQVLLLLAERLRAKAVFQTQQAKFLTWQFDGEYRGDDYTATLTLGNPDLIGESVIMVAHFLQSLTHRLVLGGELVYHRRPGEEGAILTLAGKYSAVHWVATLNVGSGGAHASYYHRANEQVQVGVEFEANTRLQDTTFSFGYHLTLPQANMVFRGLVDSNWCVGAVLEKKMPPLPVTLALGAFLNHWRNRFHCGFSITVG
UniProt Q13641: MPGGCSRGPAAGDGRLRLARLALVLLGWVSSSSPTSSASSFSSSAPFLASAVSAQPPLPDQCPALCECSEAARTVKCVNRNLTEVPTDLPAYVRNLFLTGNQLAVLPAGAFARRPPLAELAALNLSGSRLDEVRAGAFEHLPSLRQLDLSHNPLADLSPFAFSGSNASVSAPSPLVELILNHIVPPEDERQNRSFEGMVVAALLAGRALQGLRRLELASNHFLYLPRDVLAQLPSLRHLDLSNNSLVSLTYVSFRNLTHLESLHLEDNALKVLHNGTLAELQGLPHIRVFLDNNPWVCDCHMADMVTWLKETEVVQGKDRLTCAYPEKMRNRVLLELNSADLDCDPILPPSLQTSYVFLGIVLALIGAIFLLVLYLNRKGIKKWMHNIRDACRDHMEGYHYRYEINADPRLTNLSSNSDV
UniProt P67936, whole entry, looked up: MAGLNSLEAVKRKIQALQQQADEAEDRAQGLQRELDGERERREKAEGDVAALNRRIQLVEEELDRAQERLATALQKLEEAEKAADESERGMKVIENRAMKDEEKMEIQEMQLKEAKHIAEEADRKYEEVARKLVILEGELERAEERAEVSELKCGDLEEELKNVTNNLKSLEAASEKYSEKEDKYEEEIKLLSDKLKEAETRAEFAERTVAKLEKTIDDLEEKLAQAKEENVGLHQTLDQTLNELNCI
UniProt Q96A57: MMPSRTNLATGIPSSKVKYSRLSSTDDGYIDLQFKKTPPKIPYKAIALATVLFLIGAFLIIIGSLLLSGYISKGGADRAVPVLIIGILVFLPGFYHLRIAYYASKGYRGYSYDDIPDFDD
UniProt Q8N4H5: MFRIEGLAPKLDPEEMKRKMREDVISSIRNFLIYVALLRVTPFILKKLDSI
UniProt Q92547, whole entry, looked up: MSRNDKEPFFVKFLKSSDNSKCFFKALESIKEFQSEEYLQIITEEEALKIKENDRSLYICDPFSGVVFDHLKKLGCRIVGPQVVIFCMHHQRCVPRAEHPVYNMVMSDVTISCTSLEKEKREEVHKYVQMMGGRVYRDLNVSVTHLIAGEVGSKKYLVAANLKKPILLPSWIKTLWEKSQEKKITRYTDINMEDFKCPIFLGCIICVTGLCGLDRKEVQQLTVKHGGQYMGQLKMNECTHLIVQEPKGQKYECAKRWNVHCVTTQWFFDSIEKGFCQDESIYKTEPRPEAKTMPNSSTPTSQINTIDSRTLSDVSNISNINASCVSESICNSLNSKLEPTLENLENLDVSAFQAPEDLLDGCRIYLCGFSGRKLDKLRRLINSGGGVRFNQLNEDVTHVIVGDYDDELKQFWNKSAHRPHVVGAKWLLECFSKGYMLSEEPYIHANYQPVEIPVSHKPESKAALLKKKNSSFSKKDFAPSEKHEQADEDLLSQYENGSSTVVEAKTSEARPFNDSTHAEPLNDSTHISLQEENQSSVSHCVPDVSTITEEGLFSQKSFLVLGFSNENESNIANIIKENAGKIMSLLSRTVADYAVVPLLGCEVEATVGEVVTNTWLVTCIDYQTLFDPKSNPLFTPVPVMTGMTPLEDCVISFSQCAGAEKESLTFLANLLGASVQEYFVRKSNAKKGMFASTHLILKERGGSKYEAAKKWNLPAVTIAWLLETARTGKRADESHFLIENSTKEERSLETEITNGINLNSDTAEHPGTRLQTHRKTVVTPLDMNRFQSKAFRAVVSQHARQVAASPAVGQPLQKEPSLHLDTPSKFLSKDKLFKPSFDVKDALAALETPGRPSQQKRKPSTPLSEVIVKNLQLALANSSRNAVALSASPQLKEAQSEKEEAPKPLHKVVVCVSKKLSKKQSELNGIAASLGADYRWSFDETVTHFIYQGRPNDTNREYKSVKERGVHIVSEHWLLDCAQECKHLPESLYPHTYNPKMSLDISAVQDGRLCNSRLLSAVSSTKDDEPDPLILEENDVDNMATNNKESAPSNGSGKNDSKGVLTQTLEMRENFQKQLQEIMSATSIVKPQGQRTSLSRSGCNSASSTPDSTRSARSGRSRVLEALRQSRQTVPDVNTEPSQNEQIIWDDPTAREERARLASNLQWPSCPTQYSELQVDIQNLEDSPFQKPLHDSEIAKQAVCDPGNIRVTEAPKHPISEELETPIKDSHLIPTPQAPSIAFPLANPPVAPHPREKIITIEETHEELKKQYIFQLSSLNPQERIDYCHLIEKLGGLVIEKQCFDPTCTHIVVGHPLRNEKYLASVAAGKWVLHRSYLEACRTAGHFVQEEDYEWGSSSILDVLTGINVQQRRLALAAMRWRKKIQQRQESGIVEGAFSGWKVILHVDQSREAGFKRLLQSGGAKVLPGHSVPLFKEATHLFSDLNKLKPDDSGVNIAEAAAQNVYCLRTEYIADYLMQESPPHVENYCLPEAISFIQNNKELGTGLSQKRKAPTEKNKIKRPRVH
UniProt P06753, whole entry, looked up: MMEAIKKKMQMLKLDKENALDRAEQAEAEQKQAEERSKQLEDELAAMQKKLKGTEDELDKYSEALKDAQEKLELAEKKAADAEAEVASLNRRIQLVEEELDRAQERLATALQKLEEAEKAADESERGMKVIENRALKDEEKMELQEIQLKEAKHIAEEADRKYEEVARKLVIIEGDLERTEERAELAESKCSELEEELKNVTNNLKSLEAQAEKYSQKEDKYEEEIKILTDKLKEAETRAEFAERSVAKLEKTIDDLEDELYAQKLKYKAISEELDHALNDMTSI
UniProt O94842: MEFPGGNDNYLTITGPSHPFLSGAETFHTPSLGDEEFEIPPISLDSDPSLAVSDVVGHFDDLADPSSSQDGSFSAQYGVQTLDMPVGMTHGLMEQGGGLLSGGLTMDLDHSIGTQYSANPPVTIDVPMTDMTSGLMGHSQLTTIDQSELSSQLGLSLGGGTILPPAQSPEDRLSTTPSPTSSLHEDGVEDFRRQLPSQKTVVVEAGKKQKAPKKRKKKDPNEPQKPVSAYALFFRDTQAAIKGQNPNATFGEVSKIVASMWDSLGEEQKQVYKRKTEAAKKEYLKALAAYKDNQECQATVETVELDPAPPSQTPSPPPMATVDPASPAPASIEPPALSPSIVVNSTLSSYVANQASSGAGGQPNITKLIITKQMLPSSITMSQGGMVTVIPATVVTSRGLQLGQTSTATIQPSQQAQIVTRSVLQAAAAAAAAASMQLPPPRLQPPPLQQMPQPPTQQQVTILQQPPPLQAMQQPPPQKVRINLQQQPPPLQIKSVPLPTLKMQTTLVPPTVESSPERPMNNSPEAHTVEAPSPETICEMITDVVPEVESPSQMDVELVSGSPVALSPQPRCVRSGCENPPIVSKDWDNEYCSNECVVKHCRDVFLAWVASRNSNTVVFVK
UniProt Q5BJF2, whole entry, looked up: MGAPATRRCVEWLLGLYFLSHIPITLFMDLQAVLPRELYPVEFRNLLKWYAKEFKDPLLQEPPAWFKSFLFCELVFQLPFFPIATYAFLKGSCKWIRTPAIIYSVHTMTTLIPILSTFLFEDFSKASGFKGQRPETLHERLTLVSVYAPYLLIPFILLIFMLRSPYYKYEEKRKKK
UniProt Q02880: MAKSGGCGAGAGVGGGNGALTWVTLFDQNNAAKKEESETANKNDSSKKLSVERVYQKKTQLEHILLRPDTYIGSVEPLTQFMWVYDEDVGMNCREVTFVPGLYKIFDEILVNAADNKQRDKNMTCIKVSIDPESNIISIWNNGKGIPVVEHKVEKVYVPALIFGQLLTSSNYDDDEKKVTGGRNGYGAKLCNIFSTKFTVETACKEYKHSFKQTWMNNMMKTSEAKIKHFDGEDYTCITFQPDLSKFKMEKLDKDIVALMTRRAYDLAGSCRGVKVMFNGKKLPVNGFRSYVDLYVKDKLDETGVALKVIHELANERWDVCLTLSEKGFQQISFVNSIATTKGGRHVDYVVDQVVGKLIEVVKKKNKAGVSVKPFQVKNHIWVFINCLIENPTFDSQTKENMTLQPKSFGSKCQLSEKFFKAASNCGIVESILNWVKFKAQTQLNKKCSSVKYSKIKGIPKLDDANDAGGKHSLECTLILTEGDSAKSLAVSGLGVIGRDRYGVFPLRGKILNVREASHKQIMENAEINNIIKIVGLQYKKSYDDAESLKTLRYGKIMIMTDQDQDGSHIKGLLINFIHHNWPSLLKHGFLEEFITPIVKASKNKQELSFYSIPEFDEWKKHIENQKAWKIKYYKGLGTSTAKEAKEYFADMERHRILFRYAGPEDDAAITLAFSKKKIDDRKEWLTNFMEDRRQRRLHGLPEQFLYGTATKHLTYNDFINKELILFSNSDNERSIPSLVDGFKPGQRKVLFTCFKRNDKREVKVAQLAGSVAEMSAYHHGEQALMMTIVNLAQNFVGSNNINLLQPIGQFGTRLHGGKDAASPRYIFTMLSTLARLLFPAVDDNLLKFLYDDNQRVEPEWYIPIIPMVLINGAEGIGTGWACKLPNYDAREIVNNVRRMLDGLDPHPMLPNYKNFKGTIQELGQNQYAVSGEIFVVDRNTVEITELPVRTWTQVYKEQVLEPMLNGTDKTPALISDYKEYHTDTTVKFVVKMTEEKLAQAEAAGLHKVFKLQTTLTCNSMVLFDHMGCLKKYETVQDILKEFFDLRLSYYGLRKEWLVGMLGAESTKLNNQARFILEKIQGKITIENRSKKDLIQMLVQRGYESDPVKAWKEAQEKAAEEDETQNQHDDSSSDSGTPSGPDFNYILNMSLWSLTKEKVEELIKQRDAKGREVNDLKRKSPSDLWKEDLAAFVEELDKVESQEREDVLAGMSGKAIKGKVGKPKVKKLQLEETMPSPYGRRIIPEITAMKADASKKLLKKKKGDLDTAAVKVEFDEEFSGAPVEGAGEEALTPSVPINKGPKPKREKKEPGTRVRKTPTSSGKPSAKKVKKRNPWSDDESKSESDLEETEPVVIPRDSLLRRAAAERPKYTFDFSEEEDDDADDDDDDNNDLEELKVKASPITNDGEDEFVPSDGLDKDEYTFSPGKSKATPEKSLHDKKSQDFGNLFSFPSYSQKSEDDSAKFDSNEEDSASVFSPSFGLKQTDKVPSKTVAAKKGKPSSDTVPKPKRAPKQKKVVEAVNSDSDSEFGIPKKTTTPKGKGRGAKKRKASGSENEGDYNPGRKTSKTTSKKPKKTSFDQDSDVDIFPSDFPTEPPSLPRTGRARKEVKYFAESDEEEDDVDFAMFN

log2 fold change, inactive:
TPCN1 isoform 3 (UniProt Q9ULQ1) -0.035, TPR (UniProt P12270) -0.027, TOR1AIP2 (UniProt Q9H496) 0.013, TNIK (UniProt C9J338) -0.023, TOR1AIP1 (UniProt Q5JTV8) 0.069, TMX2 (UniProt Q9Y320) 0.01, TOMM22 (UniProt Q9NS69) -0.055, TMEM9 (UniProt Q9P0T7) 0.116, TNPO1 (UniProt Q92973) 0.008, TOMM40L (UniProt Q969M1) -0.031, TMSB10 (UniProt P63313) -0.075, TOLLIP (UniProt Q9H0E2) 0.045, TPBG (UniProt Q13641) -0.055, TMPO (UniProt P42167) 0.012, TMEM43 (UniProt Q9BTV4) -0.009, TPM4 isoform 2 (UniProt P67936) -0.016, TMEM68 (UniProt Q96MH6) -0.031, TOMM40 (UniProt O96008) -0.043, TOR1AIP2 (UniProt Q8NFQ8) -0.021, TMEM230 isoform 2 (UniProt Q96A57) -0.021, TMUB1 (UniProt Q9BVT8) -0.128, TMOD2 (UniProt Q9NZR1) 0.044, TMEM245 (UniProt Q9H330) -0.006, TOMM5 (UniProt Q8N4H5) 0.034, TPST2 (UniProt O60704) -0.03, TNPO3 (UniProt Q9Y5L0) 0.015, TMEM35B (UniProt Q8NCS4) 0.225, TOPBP1 (UniProt Q92547) 0.019, TPP2 (UniProt Q5VZU9) 0.044, TONSL (UniProt Q96HA7) 0.061, TPM3 isoform 3 (UniProt P06753) -0.047, TOX4 (UniProt O94842) -0.037, TMEM9B (UniProt Q9NQ34) 0.038, TPM3 (UniProt P06753) 0.012, TPD52L2 isoform 7 (UniProt O43399) -0.044, TMEM97 (UniProt Q5BJF2) -0.039, TNFAIP8 isoform 4 (UniProt O95379) 0.035, TOP2B isoform 2 (UniProt Q02880) 0.034, TPM3 isoform 2 (UniProt P06753) 0.011, TOR1AIP1 isoform 3 (UniProt Q5JTV8) -0.014

Compound: O=C1NC(=O)C(c2cnc3ccccn23)=C1c1cn2c3c(cc(F)cc13)CN(C(=O)N1CCCCC1)CC2
Experiment: as above
Outline: as §1

log2 fold change, inactive:
TPCN1 isoform 3 (UniProt Q9ULQ1) -0.006, TPR (UniProt P12270) -0.01, TOR1AIP2 (UniProt Q9H496) -0.062, TNIK (UniProt C9J338) 0.006, TMX2 (UniProt Q9Y320) -0.01, TOMM22 (UniProt Q9NS69) 0.005, TMEM9 (UniProt Q9P0T7) 0.002, TNPO1 (UniProt Q92973) 0.005, TOMM40L (UniProt Q969M1) -0.023, TMSB10 (UniProt P63313) 0.094, TOLLIP (UniProt Q9H0E2) 0.115, TPBG (UniProt Q13641) 0.092, TMPO (UniProt P42167) -0.032, TMEM43 (UniProt Q9BTV4) -0.015, TPM4 isoform 2 (UniProt P67936) -0.014, TMEM68 (UniProt Q96MH6) 0.024, TOMM40 (UniProt O96008) -0.006, TOR1AIP2 (UniProt Q8NFQ8) -0.016, TMEM230 isoform 2 (UniProt Q96A57) -0.03, TMUB1 (UniProt Q9BVT8) 0.029, TMOD2 (UniProt Q9NZR1) 0.121, TMEM245 (UniProt Q9H330) -0.005, TOMM5 (UniProt Q8N4H5) 0, TPST2 (UniProt O60704) -0.048, TNPO3 (UniProt Q9Y5L0) 0.009, TMEM35B (UniProt Q8NCS4) 0.074, TOPBP1 (UniProt Q92547) -0.074, TPP2 (UniProt Q5VZU9) 0.002, TONSL (UniProt Q96HA7) 0.038, TPM3 isoform 3 (UniProt P06753) -0.15, TOX4 (UniProt O94842) -0.025, TMEM9B (UniProt Q9NQ34) -0.007, TPM3 (UniProt P06753) -0.004, TPD52L2 isoform 7 (UniProt O43399) -0.027, TMEM97 (UniProt Q5BJF2) 0.071, TNFAIP8 isoform 4 (UniProt O95379) -0.04, TOP2B isoform 2 (UniProt Q02880) 0.022, TPM3 isoform 2 (UniProt P06753) -0.047, TOR1AIP1 isoform 3 (UniProt Q5JTV8) -0.015
